# Results of single-concentration screens

A: 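Whole-parasite assay of Trypanosoma brucei over 72 hours; the read-out is not stated. Concentration: 30 µM. Direction is inferred from retests: higher values go with stronger inhibition. Values scatter widely below zero; nearly all retest evidence comes from the higher of the two concentrations used. About 64,000 compounds were tested under these conditions; 1.5% (about 940) showed 50% or more at least once.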
B: 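Cell assay of Leishmania donovani living inside macrophages; the read-out is not stated. Tested at 30 µM. The record gives no direction; compounds that gave an IC50 in retests scored well above the rest, so higher reads as stronger inhibition. About 69,000 compounds were tested under these conditions; 1.5% (about 1,000) showed 50% or more at least once.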
C: 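Assay of Toxoplasma gondii numbers, read through their beta-galactosidase reporter with a colour substrate. Tested at 10 µM. The record gives no direction; the compounds picked for IC50 retests had high values, so higher reads as fewer parasites. Size under these conditions: about 67,000 compounds, about 260 of them at 50% or above in at least one test.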

Each number is a percent effect as filed. How 0% and 100% were set is not recorded. Most values in the screen are low, and negative values occur. This is an unselected part of the compounds tested. Two or more numbers in one place are separate tests of the same structure; such repeats can differ widely. A dash means the value is not listed here; it may have been measured.

SMILES,A,B,C
C[C@@H]1CN(C2CCN(c3ccccc3)CC2)CC[C@@]1(O)C1CCOCC1,-19.06,22.22,-
COCc1csc(NC(=O)NCc2ccc(C)s2)n1,4.096,9.225,6.903
CCCN1CCCn2c(nc(CNC(=O)c3cnoc3C)cc2=O)C1.O=C(O)C(F)(F)F,19.21,36.67,7.073
CN(Cc1ccco1)C(=O)CN1CCCC1Cn1cccn1 (stereo not drawn),-7.624,-3.344,4.632
COc1ccccc1C(O)CNc1nccc(-c2ccc(C)nc2C)n1 (stereo not drawn),-5.879,0.2397,10.97
CN1CC(C(=O)NCCc2ccc3c(c2)OCO3)CC1=O (stereo not drawn),-36.4,14.49,-3.475
CCOc1cccnc1C(=O)N1CC=C(c2ccc(O)cc2)CC1,-30.36,-4.875,-19.74
CC(Cn1cccn1)NC(=O)Cc1csc(C(C)C)n1 (stereo not drawn),22.82,8.652,-30.01
O=C1CCCN1CC1CN(C(=O)C2CCOCC2)Cc2nccn2C1 (stereo not drawn),-53.25,-9.302 & -0.484,5.869
COCC1CN(Cc2c(C)noc2C)Cc2cn(C)nc21 (stereo not drawn),-16.1,-6.135,6.034
CNC(=O)N1CCC2(CC1)CN(C(C)C)Cc1cc(F)ccc12.Cl,-73.15,8.176,1.117
CC(C1CCN(Cc2cnn(C)c2C2CC2)CC1)N1CCCC1 (stereo not drawn),-23.58,10.04,11.23
[H][C@]12CC[C@]([H])(CN(S(C)(=O)=O)C1)N(C(=O)CCn1cnc3ccccc31)C2,-9.848,0.6524,3.59
O=C(c1nnn(-c2ccc(C(F)(F)F)cc2)n1)N1CC(O)C1,12.28,-7.374 & -2.935,2.574
O=C(NCC1CCN(Cc2cc3ccccc3[nH]2)C1)C1CCCCC1 (stereo not drawn),-18.04,-12.48 & 22.75,5.937
CN(Cc1cnn(C)c1)S(=O)(=O)N1CCCCCC1,-24.58,28.01,-7.226
CC(c1ccccn1)N(C)Cc1cccc(C(=O)Nc2nccn2C)c1 (stereo not drawn),-40.57,3.352,-
CN(CCSc1ccccc1)C(=O)c1cn2c(n1)CNCC2,-27.6,1.321,-12.42
Cc1n[nH]cc1CNC1CCN(c2ccccc2)CC1.Cl,-21.64,-18.61,-14.55
CNCc1n[nH]c(=O)n1-c1cccc(Cl)c1Cl,26.11,-16.09,-44.99
Br.CCOc1ccc(Br)cc1C1CCCN1 (stereo not drawn),-44.26,1.044 & -5.248,-2.18
CCN1CCN(Cc2ccnc(-c3cccnc3)n2)CC1.O=C(O)CC(O)(CC(=O)O)C(=O)O,-4.63,7.725,-4.036
COc1ccc(OC)c(C2CCN(C(=O)[C@H]3CC[C@@H](O)CC3)C2)c1 (stereo partly drawn),-4.162,24.57,-6.326
CCCc1cc(C(=O)N2C[C@H](O)[C@@H](N3CCCC3)C2)ccn1,-5.682,15.56,19.53
c1cnc(-c2cnc(N3CCSCC3)nc2C2CCCO2)cn1 (stereo not drawn),9.405,15.11,-12.62
Cc1cc(C)c2cc(CNC(C)C)c3nn(C)c(=O)n3c2c1,99.68,3.298 & 17.18,0.7035
COc1ccc(CC(=O)N2CC[C@@H](OC)[C@@H]2Cc2cccnc2)cc1.O=C(O)C(F)(F)F,8.254,-15.13,-3.187
NC(=O)CSc1nccc(-c2ccc3c(c2)OCO3)n1,-9.807,30.09,26.88
Cc1nonc1-c1nc(C(C)C)nn1-c1ccc2c(c1)OCO2,1.337,19.01,-1.904
CNC(=O)C1CN(C(=O)c2ccncc2)CCN(S(C)(=O)=O)C1 (stereo not drawn),-18.59,-6.044,5.296
O=C(O)C(F)(F)F.O=C(O)C(F)(F)F.O=C(O)C(F)(F)F.c1cc(CNCC2OCCc3cn(CC4CCOCC4)nc32)ccn1 (stereo not drawn),-,22.48,1.237
O=C(c1cc(Cl)ccc1OC1CCN(C2CCCC2)CC1)N1CC(O)C1,-11.75,-1.786,-7.041
COCC(=O)N1CCN(C(=O)c2cccs2)[C@@H](C(=O)OC)C1,-9.844,33.3,5.431
CC(C)c1nnc(NC(=O)NC2CCOc3ccccc32)s1 (stereo not drawn),-37.65,23.14,-2.174
CN(Cc1cccc(Cl)c1)S(=O)(=O)N1CCOCC1,21.47,15.35,2.262
CC(C(=O)NCC1CCCCC1)S(=O)(=O)Cc1csc(-c2cccs2)n1 (stereo not drawn),-55.63,19.58,7.295
CN(Cc1ncc[nH]1)CC1CCOc2ccccc2C1 (stereo not drawn),6.623,18.25,8.914
CCCSCC(=O)N1CCN(c2ccc(C)cc2)CC1C (stereo not drawn),-121,11.03,6.592
O=C(c1cnc2[nH]c(=O)[nH]c(=O)c2c1)N1CCCC1C1CCCC1 (stereo not drawn),-2.352,4.342,-14.46
Cc1cccc(N2CCCN=C2NC(=O)c2cccc(Cl)c2)c1,-18.36,32.37,11.11
CCCn1cc(C(=O)NCCS(N)(=O)=O)c2ccccc21,-49.79,23.59,3.683
CN(C)c1cc(C(=O)Nc2cccnc2N2CCSCC2)ccn1,0.03013,15.68,-8.171
O=C(c1ccc(O)nc1)N1CCN(C(=O)c2ccc(F)c(F)c2)CC1,-26.38,-6.271,5.066
O=C(O)C(F)(F)F.[H][C@@]12OCCN(CC3CCOCC3)[C@@]1([H])CC[C@H]2OCC(=O)N1CCCC1,-28.99,16.71,9.842
CC(C)C(Sc1ccccc1)C(=O)N(C)Cc1nnc2n1CCC2 (stereo not drawn),-126.2,-12.1,0.5394
O=C(Nc1ccc(F)cc1)NC1(CCO)CCOCC1,16.71,20.79,6.963
CNc1cnc(CC2COCCN(Cc3cccc(C)n3)C2)cn1 (stereo not drawn),-16.36,47.23,-8.203
O=C(O)C(F)(F)F.[H][C@@]12COC[C@]1(CNS(=O)(=O)C1CC1)CN(CCc1ccccc1)C2,0.6004,20.31,3.611
CCC(NC(=O)c1cc(OC)c2c(c1)OCCO2)c1cccs1 (stereo not drawn),6.831,11.85,11.48
Cc1noc(-c2ccc(N(C)Cc3ccncc3C)nc2)n1,-6.978,11.58,-23.03
CN(Cc1ccccc1NCc1ncc[nH]1)C(=O)c1cccs1,-49.51,-29.12,13.28
CCn1cc(S(=O)(=O)Nc2cccnc2-n2cccn2)nc1C,-39.94,25.29,3.452
C=C(C)CN1CCC(NC(=O)NCCc2ccccc2OC)CC1,10.55,13.66,-4.425
COC1COC2(CCN(C(=O)c3ncccn3)CC2)C1 (stereo not drawn),-35.02,-1.198,-1.255
CC(C)C(=O)NCc1ccccc1NS(=O)(=O)c1ccccc1,-19.28,6.672,-3.285
CCCn1c(C)cc(C(=O)CN2C(=O)c3ccccc3CS2(=O)=O)c1C,10.43,26.54,-2.193
COc1coc(C(=O)Nc2nc(-c3ccccn3)cs2)cc1=O,6.028,-26.4,0.7209
Cc1cc(C)c(CNC(=O)NC2CCN(C(=O)C(C)C)CC2)c(C)c1,-16.78,3.51,-7.99
CCCn1c(N2CCCC(C)C2)nc2c(C)nn(C)c2c1=O (stereo not drawn),99.54,-20.51,58.79
NC(=O)COc1ccc(CN2CCC3(CC2)[C@H](O)C[C@@H]3O)cc1Cl,-94.58,-2.545,-18.97
c1cnn(CC2CCCN2Cc2noc(C3CC3)n2)c1 (stereo not drawn),-11.3,12.83,-4.731
NC(=O)Cn1cc(NC(=O)N2CCN(c3ccccc3)CC2)cn1,-,16.25,-25.26
CC(C)c1nn(C)c(N2CCOCC2)c1CNCc1cscn1,-17.75,45.48,-13.85
Cl.Cn1ncc2c1CCCC2NCc1ccc(Br)s1 (stereo not drawn),-1.35,-10.03,2.664
O=C(O)C(F)(F)F.[H][C@@]12CN(C(=O)c3cccs3)C[C@]1([H])OCCN2CCOC,-17.86,15.61,0.6915
O=C(NCc1ccc(-n2cncn2)nc1)c1cc(Cl)c2c(c1)OCCO2,-27.68,11.77,15.65
CN(C)CCNC(=O)c1cc2n(n1)CCN(C(=O)c1ccc[nH]1)C2,-31.16,22.52,32.68
CCN(C(=O)CN1CCC(c2n[nH]c(C3CC3)n2)CC1)C1CC1,-1.534,14.91,-
O=C(NC[C@H]1OC[C@@H](NCc2ccc(F)cc2)[C@@H]1O)N1CCOCC1,-9.129,29.66,11.17
CCc1ccsc1C(=O)N1CCCC(c2noc(C)n2)C1 (stereo not drawn),-45.44,-11.73,-0.885
C=C(C)COc1cccc(C(=O)N2CCC3(CC2)CN(C)CCN3C)c1,-,18.66,1.474
Cc1cnn(CCNCC(O)c2ccc(F)c(F)c2)c1 (stereo not drawn),-33.61,-10.99,7.65

The last 7 entries again:

SMILES	A	B	C
O=C(NCc1ccc(-n2cncn2)nc1)c1cc(Cl)c2c(c1)OCCO2	-27.68	11.77	15.65
CN(C)CCNC(=O)c1cc2n(n1)CCN(C(=O)c1ccc[nH]1)C2	-31.16	22.52	32.68
CCN(C(=O)CN1CCC(c2n[nH]c(C3CC3)n2)CC1)C1CC1	-1.534	14.91	-
O=C(NC[C@H]1OC[C@@H](NCc2ccc(F)cc2)[C@@H]1O)N1CCOCC1	-9.129	29.66	11.17
CCc1ccsc1C(=O)N1CCCC(c2noc(C)n2)C1 (stereo not drawn)	-45.44	-11.73	-0.885
C=C(C)COc1cccc(C(=O)N2CCC3(CC2)CN(C)CCN3C)c1	-	18.66	1.474
Cc1cnn(CCNCC(O)c2ccc(F)c(F)c2)c1 (stereo not drawn)	-33.61	-10.99	7.65

Measurements from “University of Dundee, Small-Polar-MMV Screening Library” (2021), ChEMBL document CHEMBL3988442.